Laboratory results as given in patent publication US20160010147.
Where a chain is given by its changes, count along the chain named. For part of these data: Weaker means in comparison with the reference protein, sequence or condition of that experiment. For part of these data: Tags and fusion partners may be left off the protein sequences shown. For part of these data: The exact form of at least one protein or probe is not confirmed.

What was measured:
[1] = target: T1, Hel308 Mbu helicase (Methanococcoides burtonii) (UniProt Q12WZ6); assay: activity assay; settings: dsDNA turnover observed; 400 mM KCl, 10 mM MgCl2, ATP; purified recombinant protein; label: 5'-FAM on SEQ 33, 3'-BHQ-1 on SEQ 26
T1 sequence: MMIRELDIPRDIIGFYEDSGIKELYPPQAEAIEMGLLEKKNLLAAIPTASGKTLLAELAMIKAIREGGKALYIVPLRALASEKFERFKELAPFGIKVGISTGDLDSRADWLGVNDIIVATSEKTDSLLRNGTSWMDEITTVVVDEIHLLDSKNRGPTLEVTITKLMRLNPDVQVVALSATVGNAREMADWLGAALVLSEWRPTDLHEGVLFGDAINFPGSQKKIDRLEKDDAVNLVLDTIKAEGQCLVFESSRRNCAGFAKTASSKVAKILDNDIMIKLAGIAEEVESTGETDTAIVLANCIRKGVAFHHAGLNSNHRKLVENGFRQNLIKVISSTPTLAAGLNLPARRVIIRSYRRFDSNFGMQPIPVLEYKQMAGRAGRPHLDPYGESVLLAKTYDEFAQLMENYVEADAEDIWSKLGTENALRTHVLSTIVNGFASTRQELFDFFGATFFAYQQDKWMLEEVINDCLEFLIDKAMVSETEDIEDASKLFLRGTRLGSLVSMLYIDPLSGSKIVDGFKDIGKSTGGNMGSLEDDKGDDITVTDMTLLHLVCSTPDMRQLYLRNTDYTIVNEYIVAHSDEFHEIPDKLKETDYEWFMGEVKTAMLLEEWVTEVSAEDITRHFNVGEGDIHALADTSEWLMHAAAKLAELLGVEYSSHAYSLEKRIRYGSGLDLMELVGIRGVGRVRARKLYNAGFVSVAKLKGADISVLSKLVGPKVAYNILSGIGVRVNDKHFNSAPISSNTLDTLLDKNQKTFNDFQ

[2] = target: T4 Dda-E94C/A360C helicase E94C/A360C, then (ΔM1)G1G2 (Enterobacteria phage T4) (UniProt P32270); assay: EMSA; settings: 5 iSpC3 at 5' end; 4 iSpC3 between T8 and SEQ 36; purified recombinant protein; label: 5'-FAM on SEQ 35; variant of Table 12 construct 1 (10T region)
[3] = target: T4 Dda-E94C/A360C helicase E94C/A360C, then (ΔM1)G1G2 (Enterobacteria phage T4) (UniProt P32270); assay: activity assay; settings: 25 SpC3 at 5' end; 4 iSp18 between SEQ 38 and SEQ 10; 4 5-nitroindoles between SEQ 10 and SEQ 41; SEQ 12 3' six iSp18-TT-cholesterol TEG; helicase-controlled movement through MspA nanopore; 10 mM MgCl2, 1 mM ATP, 600 mM KCl, 30 C; purified recombinant protein
[4] = tested on: T2, TrwC Cba helicase (monomer) (Citromicrobium bathyomarinum); assay: activity assay; settings: 28 iSpC3 between TT and SEQ 23; 4 iSpC3 between SEQ 23 and SEQ 24; SEQ 12 3' six iSp18-TT-cholesterol TEG; nanopore helicase-controlled movement; 5% long dwell movements; 10 mM MgCl2, 5 mM dTTP, 625 mM KCl; purified recombinant protein
T2 sequence (limits assumed): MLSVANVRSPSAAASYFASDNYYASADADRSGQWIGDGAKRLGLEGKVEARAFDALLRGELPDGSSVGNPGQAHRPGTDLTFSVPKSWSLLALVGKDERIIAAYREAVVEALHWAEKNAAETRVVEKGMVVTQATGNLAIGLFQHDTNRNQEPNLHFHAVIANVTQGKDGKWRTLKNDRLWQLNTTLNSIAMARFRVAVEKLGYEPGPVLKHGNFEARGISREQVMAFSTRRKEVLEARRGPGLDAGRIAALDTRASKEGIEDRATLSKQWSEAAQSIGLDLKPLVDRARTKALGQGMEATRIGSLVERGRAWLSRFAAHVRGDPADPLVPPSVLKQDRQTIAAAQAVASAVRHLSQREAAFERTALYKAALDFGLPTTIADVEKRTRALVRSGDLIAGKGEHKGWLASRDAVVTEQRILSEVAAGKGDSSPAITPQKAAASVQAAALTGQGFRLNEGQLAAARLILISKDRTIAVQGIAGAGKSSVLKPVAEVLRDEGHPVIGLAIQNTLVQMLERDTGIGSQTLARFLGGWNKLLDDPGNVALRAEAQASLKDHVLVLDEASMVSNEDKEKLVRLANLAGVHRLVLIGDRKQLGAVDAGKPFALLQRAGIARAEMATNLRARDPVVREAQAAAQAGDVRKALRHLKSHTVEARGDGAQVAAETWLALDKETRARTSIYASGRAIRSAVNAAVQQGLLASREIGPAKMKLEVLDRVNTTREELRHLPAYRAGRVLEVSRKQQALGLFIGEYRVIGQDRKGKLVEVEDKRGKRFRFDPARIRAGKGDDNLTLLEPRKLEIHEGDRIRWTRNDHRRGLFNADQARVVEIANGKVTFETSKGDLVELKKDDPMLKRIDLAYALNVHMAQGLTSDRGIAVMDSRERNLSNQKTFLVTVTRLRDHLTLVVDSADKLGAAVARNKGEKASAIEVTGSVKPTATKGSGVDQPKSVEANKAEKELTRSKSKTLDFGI

[5] = tested on: T3, TrwC Cba Q276C-3.4 kDa dimer (Citromicrobium bathyomarinum); assay: activity assay; settings: 28 iSpC3 between TT and SEQ 23; 4 iSpC3 between SEQ 23 and SEQ 24; SEQ 12 3' six iSp18-TT-cholesterol TEG; nanopore helicase-controlled movement; 20% long dwell movements; 10 mM MgCl2, 5 mM dTTP, 625 mM KCl; purified recombinant protein
T3 sequence (limits assumed): T2 sequence (limits assumed) with Q276C

[6] = target: MuA transposase (UniProt P07636); assay: activity assay; settings: 4 iSpC3 between SEQ 14 and 15 and between SEQ 19 and 9; dU in SEQ 19; transposed into lambda DNA; 30 C 1 h, 10 mM MgCl2; purified recombinant protein; protein details: Thermo, catalogue No. F-750C

## CTATTCTGTTTATGTTTCTTGTTTGTTAGCCCTATTCTGTCCCCCCCCCC / ACAGAATAGGGCTAACAAACAAGAAACATAAACAGAATAG [Substrate G]
[1]
  activity on this sequence: active

## TTTTTTTTTCGCTGCTCCACAGGTCTCAGCTTGAGCAGCGA / TCGCTGCTCAAGCTGAGACCTGTGGAGCAGCGA [Table 12 construct 6 (8T region)]
[2]
  binding result: binds more weakly

## TTTTTTTTTTTTTTTTTTTTGGTTGTTTCTGTTGGTGCTGATATTGCGCCATCAGATTGTGTTTGTTAGTCGCT / GCAATATCAGCACCAACAGAAACAACCT / AGCGACTAACAAACACAATCTGATGGC [DNA construct X1]
[3]
  activity on this sequence: active

## TTTTTTTTTTTTTTTTTTTTTTTTTTTTTTTTTTTTTTTTTTTTTTTTGGTTGTTTCTGTTGGTGCTGATATTGCGCCATCAGATTGTGTTTGTTAGTCGCTTTTTTTTTTTGGAATTTTTTTTTTGGAATTTTTTTTTTGACGCTCAGTAATGTGACGATAGCTGAAAACTGTACGATAAACGGTACGCTGAGGGCGGAAAAAATCGTCGGGGACATTGTAAAGGCGGCGAGCGCGGCTTTTCCGCGCCAGCGTGAAAGCAGTGTGGACTGGCCGTCAGGTACCCGTACTGTCACCGTGACCGATGACCATCCTTTTGATCGCCAGATAGTGGTGCTTCCGCTGACGTTTCGCGGAAGTAAGCGTACTGTCAGCGGCAGGACAACGTATTCGATGTGTTATCTGAAAGTACTGATGAACGGTGCGGTGATTTATGATGGCGCGGCGAACGAGGCGGTACAGGTGTTCTCCCGTATTGTTGACATGCCAGCGGGTCGGGGAAACGTGATCCTGACGTTCACGCTTACGTCCACACGGCATTCGGCAGATATTCCGCCGTATACGTTTGCCAGCGATGTGCAGGTTATGGTGATTAAGAAACAGGCGCTGGGCATCAGCGTGGTCTGAGTGTGAAAAAAAAGGTACCAAAAAAAACATCGTCGTGAGTAGTGAACCGTAAGC / GCAATATCAGCACCAACAGAAACAACCT [Example 4 construct]
[4]
  activity on this sequence: active
[5]
  activity on this sequence: active

## TTTTTTTTTTTTTTTTTTTTTTTTTTTTTTTTTTTTTTTTTTTTTTTTTTGGTTGTTTCTGTTGGTGCTGATATTGCGTTTTCGCATTTATCGTGAAACGCTTTCGCGTTTTTCGTGCGCCGCTTCA / GATCUGAAGCGGCGCACGAAAAACGCGAAAGCGTTTCACGATAAATGCGAAAACTTTTTTTTTTTTTTTTTTTTTTTTTTTTTTTTTTTTTTTTTTTTTTTTTT [Y-shaped MuA substrate (Example 2)]
[6]
  activity on this sequence: active
